This assay deals with TET3, endogenous in d8 iNGNs (human (endogenous in iNGNs)) (UniProt O43151). Description: co-IP.

The chains behind the UniProt entries cited, without tags or fusion partners.
UniProt O43151: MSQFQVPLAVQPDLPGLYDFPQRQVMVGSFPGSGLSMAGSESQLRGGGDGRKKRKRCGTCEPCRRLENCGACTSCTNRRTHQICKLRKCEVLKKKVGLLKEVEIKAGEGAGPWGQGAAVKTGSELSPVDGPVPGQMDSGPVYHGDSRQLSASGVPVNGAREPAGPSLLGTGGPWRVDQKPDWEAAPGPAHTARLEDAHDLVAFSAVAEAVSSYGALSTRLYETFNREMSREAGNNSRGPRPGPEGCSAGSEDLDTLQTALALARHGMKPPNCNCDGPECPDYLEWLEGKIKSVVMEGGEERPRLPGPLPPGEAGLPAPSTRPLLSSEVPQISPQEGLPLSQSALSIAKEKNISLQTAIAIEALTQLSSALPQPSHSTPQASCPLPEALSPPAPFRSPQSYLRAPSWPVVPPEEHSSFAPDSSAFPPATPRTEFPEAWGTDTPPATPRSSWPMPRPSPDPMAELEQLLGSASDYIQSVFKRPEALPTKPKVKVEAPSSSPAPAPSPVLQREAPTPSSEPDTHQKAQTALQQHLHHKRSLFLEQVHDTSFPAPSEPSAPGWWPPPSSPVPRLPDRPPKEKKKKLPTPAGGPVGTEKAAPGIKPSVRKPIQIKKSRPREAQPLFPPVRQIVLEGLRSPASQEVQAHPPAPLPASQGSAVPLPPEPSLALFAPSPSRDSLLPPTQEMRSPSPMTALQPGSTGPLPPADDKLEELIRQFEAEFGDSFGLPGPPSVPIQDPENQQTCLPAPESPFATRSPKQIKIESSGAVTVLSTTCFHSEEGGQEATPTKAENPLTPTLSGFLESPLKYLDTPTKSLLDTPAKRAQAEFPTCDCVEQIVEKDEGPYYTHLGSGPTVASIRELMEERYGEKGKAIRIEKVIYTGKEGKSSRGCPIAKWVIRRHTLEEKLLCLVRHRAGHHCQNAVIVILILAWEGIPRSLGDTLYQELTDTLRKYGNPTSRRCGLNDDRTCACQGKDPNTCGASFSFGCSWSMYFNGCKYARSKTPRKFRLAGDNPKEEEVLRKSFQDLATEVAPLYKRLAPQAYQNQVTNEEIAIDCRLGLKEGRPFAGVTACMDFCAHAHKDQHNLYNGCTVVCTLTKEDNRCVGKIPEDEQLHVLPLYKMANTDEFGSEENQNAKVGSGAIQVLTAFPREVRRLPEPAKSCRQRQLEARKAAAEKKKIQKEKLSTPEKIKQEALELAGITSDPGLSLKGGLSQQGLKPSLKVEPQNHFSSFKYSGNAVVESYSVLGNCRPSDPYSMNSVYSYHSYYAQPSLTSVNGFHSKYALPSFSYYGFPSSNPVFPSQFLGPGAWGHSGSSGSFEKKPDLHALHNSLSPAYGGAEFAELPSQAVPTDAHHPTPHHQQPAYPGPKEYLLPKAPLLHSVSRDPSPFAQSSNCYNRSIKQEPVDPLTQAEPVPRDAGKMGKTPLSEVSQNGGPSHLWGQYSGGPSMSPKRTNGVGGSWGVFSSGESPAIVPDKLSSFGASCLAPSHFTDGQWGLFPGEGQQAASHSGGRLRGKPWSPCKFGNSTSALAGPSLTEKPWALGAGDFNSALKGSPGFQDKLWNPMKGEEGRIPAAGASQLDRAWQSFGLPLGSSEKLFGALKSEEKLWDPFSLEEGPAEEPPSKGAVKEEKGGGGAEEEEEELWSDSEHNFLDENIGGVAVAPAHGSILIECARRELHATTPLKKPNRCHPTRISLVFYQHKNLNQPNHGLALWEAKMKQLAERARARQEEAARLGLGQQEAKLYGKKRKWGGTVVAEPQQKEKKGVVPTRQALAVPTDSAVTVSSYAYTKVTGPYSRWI
UniProt P51608: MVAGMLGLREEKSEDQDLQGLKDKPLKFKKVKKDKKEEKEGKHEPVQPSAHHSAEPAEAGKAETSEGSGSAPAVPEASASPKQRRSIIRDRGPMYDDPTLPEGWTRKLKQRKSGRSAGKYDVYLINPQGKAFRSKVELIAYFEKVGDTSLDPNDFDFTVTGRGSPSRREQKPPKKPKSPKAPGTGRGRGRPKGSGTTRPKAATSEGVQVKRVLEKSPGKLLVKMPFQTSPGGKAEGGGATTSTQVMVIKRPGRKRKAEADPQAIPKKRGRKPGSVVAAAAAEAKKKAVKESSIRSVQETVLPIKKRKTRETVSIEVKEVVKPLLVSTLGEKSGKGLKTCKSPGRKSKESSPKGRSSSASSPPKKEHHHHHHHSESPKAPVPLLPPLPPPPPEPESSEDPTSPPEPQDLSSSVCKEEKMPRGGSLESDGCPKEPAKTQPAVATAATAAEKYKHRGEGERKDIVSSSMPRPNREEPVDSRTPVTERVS

These results are taken from doi:10.1101/2025.10.29.685266.

Results are given in words; binding and its absence hold for the method and conditions named. Binding seen in cells or lysates may run through a third protein. Some binding calls cover weakened binding; strength is not graded here.

Regarding “methyl-CpG-binding protein 2 (MECP2), endogenous in d8 iNGNs (from UniProt P51608 1-486)”, the binding result is reported as “binds”.
